PubChem BioAssay AID1259254 – NCATS, 2017

- Test: 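Gene knock-downs that lead to re-replication, shown by excess G2 DNA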 (primary screen)
- System: human HCT116 colorectal cancer cells
- Reagent: single siRNA against human genes
- Duration: 3 days
- Detection: 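Nuclei stained with Hoechst and imaged; cell-cycle phase assigned by DNA content; G2 share scaled per plate, non-targeting siRNA 0%, GMNN siRNA 100%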
- Reading the numbers: G2 robust z-score: higher = more G2 cells, more excess DNA replication
- Active means: 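Active siRNAs have a G2 robust z of 5 or more median absolute deviations over the median, which in these data means about 38% or higher of GMNN control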
The whole screen tested about 59,000 reagents; below is an unselected part. About 1,550 of all reagents (2.6%) count as active. 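G2 share is only a proxy for re-replication; each gene was hit by three separate siRNAs, and active genes were retested.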 Entries without a mark were called inactive. The numbers tell different reagents against one gene apart. Further read-outs or replicates are left out here. No sequences are given here. Not stated in the record: the amount of reagent.

CCDC17 (GeneID 149483) #1 | G2 robust z-score: 0.00725
CCDC17 (GeneID 149483) #2 | G2 robust z-score: 0.64
CCDC17 (GeneID 149483) #3 | G2 robust z-score: 0.418
ZSCAN10 (GeneID 84891) #1 | G2 robust z-score: 2.9
ZSCAN10 (GeneID 84891) #2 | G2 robust z-score: -1.4
ZSCAN10 (GeneID 84891) #3 | G2 robust z-score: -0.192
FBXO36 (GeneID 130888) #1 | G2 robust z-score: 0.266
FBXO36 (GeneID 130888) #2 | G2 robust z-score: 4.67
FBXO36 (GeneID 130888) #3 | G2 robust z-score: 1.64
CA8 (GeneID 767) #1 | G2 robust z-score: 7.07 (active)
CA8 (GeneID 767) #2 | G2 robust z-score: -0.624
CA8 (GeneID 767) #3 | G2 robust z-score: 0.585

Entries listed so far whose target name starts with C or c:
CCDC17 (GeneID 149483) #1 | G2 robust z-score: 0.00725
CCDC17 (GeneID 149483) #2 | G2 robust z-score: 0.64
CCDC17 (GeneID 149483) #3 | G2 robust z-score: 0.418
CA8 (GeneID 767) #1 | G2 robust z-score: 7.07 (active)
CA8 (GeneID 767) #2 | G2 robust z-score: -0.624
CA8 (GeneID 767) #3 | G2 robust z-score: 0.585
